{"source": "patent US20230141284A1", "about": "“CANCER THERAPEUTIC METHOD” (ONO PHARMACEUTICAL CO., LTD., priority 2020, published 2023)", "key": {"[1]": {"tested_on": "colon cancer cell line MC38", "test": "Effect of dexamethasone on Compound A plus anti-PD-1 antibody 4H2, MC38 tumor-bearing mouse model (Example 22)"}, "[2]": {"tested_on": "colon cancer cell line MC38"}}, "note": "Like-named read-outs stand apart in the source and are kept apart here. At least one structure is not confirmed: it was looked up by name or label, or the drawing left a doubt.", "data": [{"compound": "C[C@@H]1C[C@H]2[C@@H]3CCC4=CC(=O)C=C[C@]4(C)[C@@]3(F)[C@@H](O)C[C@]2(C)[C@@]1(O)C(=O)CO", "note": "[dexamethasone]", "values": [{"measurement": "production of IL-6 in plasma", "setting": "[1]; dexamethasone 0.1 mg/kg i.v. immediately before Compound A (0.1 mg/kg) plus anti-PD-1 antibody 4H2, vs the combination alone", "value": "decreased"}, {"measurement": "anti-tumor effect of the combination of Compound A and anti-PD-1 antibody 4H2", "setting": "[1]; dexamethasone 0.1 mg/kg i.v. pretreatment, until Day 28 or 35", "value": "did not affect"}, {"measurement": "production of IL-6 in plasma", "setting": "[2]; dexamethasone 10 mg/kg i.v. 1 hour before Compound A (0.3 or 1 mg/kg), vs Compound A alone, blood 1 hour after compound", "value": "decreased"}, {"measurement": "anti-tumor effect of Compound A", "setting": "[2]; dexamethasone 10 mg/kg i.v. pretreatment, Compound A 0.3 or 1 mg/kg, until Day 25", "value": "did not affect"}]}]}
